These are yes or no findings as the source states them, for the method shown. In cells and extracts the contact can be indirect. Some results given as binding are weak or reduced against the parent protein; the word gives no strength.
Key:
[1] = target: focal adhesion kinase (FAK) (human (endogenous in MCF-7 and MDA-MB-231)) (UniProt Q05397); assay: proximity ligation; in situ PLA (Duolink) on fixed, Triton-permeabilised MCF-7 or MDA-MB-231 cells; EGF 25 ng/mL, 15 min (or time course), 37 °C; cells in part treated with cytochalasin D, siRNAs/shRNA, CA- or DN-plasmids (FAK, c-Src, Rac1, RhoA), CD99CRIII3 or CD99-Fc
[2] = target: coiled-coil containing protein kinase 2 (ROCK2) (human (endogenous in MCF-7 and MDA-MB-231)) (UniProt O75116); assay: as above
[3] = target: coiled-coil containing protein kinase 2 (ROCK2) (human (endogenous in MCF-7 and MDA-MB-231)) (UniProt O75116); assay: co-IP; MDA-MB-231 cells treated with EGF (25 ng/mL) with or without CD99CRIII3 (40 µM), in part PTPN12 siRNA or plasmids for CA-GTPases, WAVE2, ARP2, ROCK2, Ezrin; lysis in PRO-PREP solution, antibody overnight at 4 °C, Protein A/G agarose, Western blot
[4] = target: epidermal growth factor receptor (EGFR) (human (endogenous in MCF-7 and MDA-MB-231)) (UniProt P00533); assay: proximity ligation; in situ PLA (Duolink) on fixed, Triton-permeabilised MCF-7 or MDA-MB-231 cells; EGF 25 ng/mL, 15 min (or time course), 37 °C; cells in part treated with cytochalasin D, siRNAs/shRNA, CA- or DN-plasmids (FAK, c-Src, Rac1, RhoA), CD99CRIII3 or CD99-Fc
[5] = target: epidermal growth factor receptor (EGFR) (human (endogenous in MCF-7 and MDA-MB-231)) (UniProt P00533); assay: proximity ligation; in situ PLA on MCF-7 cells treated with EGF together with CD99CRIII3

Protein sequences, listed by entry. Tags and fused reporters are not part of them.
UniProt Q05397: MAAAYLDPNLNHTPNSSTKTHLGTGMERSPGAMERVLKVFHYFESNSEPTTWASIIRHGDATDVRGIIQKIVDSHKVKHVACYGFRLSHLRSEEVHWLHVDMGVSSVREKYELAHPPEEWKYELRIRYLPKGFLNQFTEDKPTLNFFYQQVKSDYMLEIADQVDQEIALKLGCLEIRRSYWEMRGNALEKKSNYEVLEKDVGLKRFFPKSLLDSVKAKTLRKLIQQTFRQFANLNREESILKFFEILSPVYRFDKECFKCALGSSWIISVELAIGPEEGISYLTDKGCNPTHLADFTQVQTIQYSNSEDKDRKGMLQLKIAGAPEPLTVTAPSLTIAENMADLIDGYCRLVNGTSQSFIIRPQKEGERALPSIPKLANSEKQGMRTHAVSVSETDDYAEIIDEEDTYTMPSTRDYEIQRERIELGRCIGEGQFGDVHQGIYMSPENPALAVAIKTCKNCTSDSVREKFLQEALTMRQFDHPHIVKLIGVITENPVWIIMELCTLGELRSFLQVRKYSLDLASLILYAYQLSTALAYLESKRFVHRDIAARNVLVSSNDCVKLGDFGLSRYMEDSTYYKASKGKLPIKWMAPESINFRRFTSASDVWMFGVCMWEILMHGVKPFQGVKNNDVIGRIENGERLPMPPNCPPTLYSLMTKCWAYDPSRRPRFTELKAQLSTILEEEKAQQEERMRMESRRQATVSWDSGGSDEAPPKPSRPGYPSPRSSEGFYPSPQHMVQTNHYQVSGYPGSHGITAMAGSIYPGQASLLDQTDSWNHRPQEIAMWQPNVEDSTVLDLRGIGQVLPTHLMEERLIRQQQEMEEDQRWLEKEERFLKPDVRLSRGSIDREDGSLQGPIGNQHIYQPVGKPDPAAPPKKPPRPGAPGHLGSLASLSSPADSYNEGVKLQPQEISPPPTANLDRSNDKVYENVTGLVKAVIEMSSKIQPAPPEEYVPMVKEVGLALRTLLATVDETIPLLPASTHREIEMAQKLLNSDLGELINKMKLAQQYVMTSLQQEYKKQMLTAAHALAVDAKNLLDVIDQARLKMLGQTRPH
UniProt O75116: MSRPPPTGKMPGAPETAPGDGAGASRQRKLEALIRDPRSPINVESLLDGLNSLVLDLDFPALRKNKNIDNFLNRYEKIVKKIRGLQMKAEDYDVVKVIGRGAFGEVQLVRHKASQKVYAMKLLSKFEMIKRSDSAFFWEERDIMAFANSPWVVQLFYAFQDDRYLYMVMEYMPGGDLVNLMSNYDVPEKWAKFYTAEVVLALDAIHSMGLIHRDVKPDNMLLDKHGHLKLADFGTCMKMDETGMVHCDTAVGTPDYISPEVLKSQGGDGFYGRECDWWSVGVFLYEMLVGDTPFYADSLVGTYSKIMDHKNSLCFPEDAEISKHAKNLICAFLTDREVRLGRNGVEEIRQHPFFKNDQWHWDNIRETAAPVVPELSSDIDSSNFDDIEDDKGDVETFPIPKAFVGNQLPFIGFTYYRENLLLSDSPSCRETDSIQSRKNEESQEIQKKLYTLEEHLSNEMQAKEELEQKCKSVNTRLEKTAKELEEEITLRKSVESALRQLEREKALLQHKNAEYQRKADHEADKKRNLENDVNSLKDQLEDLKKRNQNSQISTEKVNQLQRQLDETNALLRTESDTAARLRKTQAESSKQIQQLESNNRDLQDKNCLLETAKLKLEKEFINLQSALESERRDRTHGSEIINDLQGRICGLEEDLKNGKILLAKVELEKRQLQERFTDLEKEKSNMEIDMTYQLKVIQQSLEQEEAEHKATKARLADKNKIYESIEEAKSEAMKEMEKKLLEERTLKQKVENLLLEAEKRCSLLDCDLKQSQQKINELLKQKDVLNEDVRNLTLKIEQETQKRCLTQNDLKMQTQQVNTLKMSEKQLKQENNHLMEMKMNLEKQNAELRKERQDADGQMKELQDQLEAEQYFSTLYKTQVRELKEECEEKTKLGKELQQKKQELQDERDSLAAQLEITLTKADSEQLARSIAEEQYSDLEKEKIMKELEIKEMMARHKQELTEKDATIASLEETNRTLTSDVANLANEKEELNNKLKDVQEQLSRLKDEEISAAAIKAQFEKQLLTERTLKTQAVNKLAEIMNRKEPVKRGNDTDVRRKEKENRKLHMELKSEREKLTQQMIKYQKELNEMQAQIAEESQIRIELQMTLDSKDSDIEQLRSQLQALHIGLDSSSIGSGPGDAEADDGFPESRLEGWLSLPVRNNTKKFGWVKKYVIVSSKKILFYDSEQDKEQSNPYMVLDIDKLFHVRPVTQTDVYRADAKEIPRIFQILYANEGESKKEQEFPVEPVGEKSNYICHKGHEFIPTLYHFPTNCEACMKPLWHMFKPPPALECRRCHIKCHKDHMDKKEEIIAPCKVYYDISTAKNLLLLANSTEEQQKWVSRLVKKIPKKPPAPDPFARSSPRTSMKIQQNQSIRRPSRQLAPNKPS
UniProt P61586: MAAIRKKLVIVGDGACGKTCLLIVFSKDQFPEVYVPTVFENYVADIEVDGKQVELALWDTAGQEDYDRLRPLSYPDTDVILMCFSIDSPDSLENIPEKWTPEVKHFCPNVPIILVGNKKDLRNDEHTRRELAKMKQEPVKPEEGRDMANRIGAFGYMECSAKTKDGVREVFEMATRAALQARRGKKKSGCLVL
UniProt P15311: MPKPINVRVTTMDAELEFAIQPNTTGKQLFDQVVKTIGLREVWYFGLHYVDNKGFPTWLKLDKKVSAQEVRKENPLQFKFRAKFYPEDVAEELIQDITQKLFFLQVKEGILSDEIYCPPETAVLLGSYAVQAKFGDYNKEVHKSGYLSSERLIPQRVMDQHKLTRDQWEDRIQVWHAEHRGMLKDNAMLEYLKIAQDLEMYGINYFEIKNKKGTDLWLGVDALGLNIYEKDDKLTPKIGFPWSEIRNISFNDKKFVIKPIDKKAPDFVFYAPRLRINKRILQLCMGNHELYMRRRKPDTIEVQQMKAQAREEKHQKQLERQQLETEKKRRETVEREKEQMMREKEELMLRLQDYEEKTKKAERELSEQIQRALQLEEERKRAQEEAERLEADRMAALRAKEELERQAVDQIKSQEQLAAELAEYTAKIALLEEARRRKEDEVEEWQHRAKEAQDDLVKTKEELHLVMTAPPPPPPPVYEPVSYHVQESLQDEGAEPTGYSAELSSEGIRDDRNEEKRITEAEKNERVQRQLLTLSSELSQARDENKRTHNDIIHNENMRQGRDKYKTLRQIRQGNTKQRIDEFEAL

RhoA (from UniProt P61586 1-193)
binding [1]: binds

Ezrin (from UniProt P15311 1-586)
binding [2]: binds | binding [3]: binds

focal adhesion kinase (FAK) (from UniProt Q05397 1-1052) (enzyme)
binding [4]: binds | binding [5]: no binding (condition: cells co-treated with CD99CRIII3)
